Assay results from the supplement of paper PMC12889115.
This is one part of the list. These are raw signals, not scaled to a control.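 First-pass screen: polymyxin B was added at a level that permeabilizes the Salmonella outer membrane while sparing the inner membrane. DMSO wells, with and without polymyxin B, defined maximum growth. Because plates differed from one another, each plate's data were ranked separately and the compounds with the lowest OD600 were carried forward as hits.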

Test system: Salmonella enterica serovar Typhimurium SL1344
Assay: bacterial growth OD600 after 18 h with compound and polymyxin B; higher = more bacterial growth (less inhibition)
Conditions: 50 µM, Mueller-Hinton broth

COc1ccccc1CCNC(=O)Cc1ccc(N2CCC(NCCn3cncn3)CC2)cc1
bacterial growth OD600 (polymyxin B 0.75 µg/mL): 0.782

COc1cc(C(=O)NCCc2cccc(F)c2)ccc1OC1CCN(C(C)=O)CC1
bacterial growth OD600 (polymyxin B 1 µg/mL): 1.33

CCC1CN(CCNC(=O)CC(C)C)Cc2cc(OC)ccc2O1 (centres undefined)
bacterial growth OD600 (polymyxin B 0.75 µg/mL): 0.743

O[C@@H]1CN(Cc2cccc(Cn3cccn3)c2)CC[C@H]1N1CCN(c2ccccn2)CC1
bacterial growth OD600 (polymyxin B 1 µg/mL): 1.25

COc1cccc(CCC(=O)N(C)C2CCCN(Cc3ccccc3F)C2)c1 (centres undefined)
bacterial growth OD600 (polymyxin B 1 µg/mL): 0.871

CCCc1cc(CNC(=O)c2ccc(N3CCCC(CNC(C)=O)C3)nc2)on1 (centres undefined)
bacterial growth OD600 (polymyxin B 1 µg/mL): 1.22

CCCCC1CN(CCC(=O)NCCOc2cccnc2)Cc2ccccc2O1 (centres undefined)
bacterial growth OD600 (polymyxin B 0.75 µg/mL): 0.647

COc1ccc2c(C)nc(N3CCCC(C(=O)NCc4ccccc4)C3)nc2c1 (centres undefined)
bacterial growth OD600 (polymyxin B 0.75 µg/mL): 0.361

O=C(Cc1ccc2c(c1)OCO2)NCc1cccnc1N1CCCCCCC1
bacterial growth OD600 (polymyxin B 0.75 µg/mL): 0.51

Cc1ccccc1CN1CCOc2ccc(C(C)(O)CN(C)C)cc2C1 (centres undefined)
bacterial growth OD600 (polymyxin B 0.75 µg/mL): 0.773

CC(C)N1CCC(N2CCC(C3CCN(c4ncccn4)CC3)C2)CC1 (centres undefined)
bacterial growth OD600 (polymyxin B 0.75 µg/mL): 0.786

COc1ccc(/C=C/CN2CCC3(CC2)c2ccccc2[C@@H](NC(=O)COc2ccccc2)[C@@H]3O)cc1
bacterial growth OD600 (polymyxin B 0.75 µg/mL): 0.799

Cc1noc(C)c1CC(=O)NC1CC(=O)N(CCCc2ccccc2)C1 (centres undefined)
bacterial growth OD600 (polymyxin B 1 µg/mL): 1.07

CCOC(=O)C1(Cc2cccc(F)c2)CCN(Cc2cn(CC)nc2C)CC1
bacterial growth OD600 (polymyxin B 1 µg/mL): 0.796

CCCN1CCCC1C(=O)Nc1ccc(-c2cscn2)cc1 (centres undefined)
bacterial growth OD600 (polymyxin B 0.75 µg/mL): 0.833

O=C(Nc1cccc(-c2ccc(F)cc2)c1)C1CCCN1Cc1cccnc1 (centres undefined)
bacterial growth OD600 (polymyxin B 1 µg/mL): 0.009

CSc1ccc(C(=O)N2CCOC(CCN(C)C)C2)cc1 (centres undefined)
bacterial growth OD600 (polymyxin B 0.75 µg/mL): 0.823

O=C(/C=C/c1ccc(F)cc1)NCC1CCC2(CCN(CCCc3ccccc3)CC2)O1 (centres undefined)
bacterial growth OD600 (polymyxin B 0.75 µg/mL): 0.03

CCOc1ccccc1CN1CCN(Cc2ccc(C)cc2)CC1CCO (centres undefined)
bacterial growth OD600 (polymyxin B 1 µg/mL): 0.864
